From PMC9499397
These are yes or no findings as the source states them, for the method shown. Binding seen in cells or lysates may run through a third protein. Some binding calls cover weakened binding; strength is not graded here.

The chains behind the UniProt entries cited, without tags or fusion partners.
UniProt Q7TNF0: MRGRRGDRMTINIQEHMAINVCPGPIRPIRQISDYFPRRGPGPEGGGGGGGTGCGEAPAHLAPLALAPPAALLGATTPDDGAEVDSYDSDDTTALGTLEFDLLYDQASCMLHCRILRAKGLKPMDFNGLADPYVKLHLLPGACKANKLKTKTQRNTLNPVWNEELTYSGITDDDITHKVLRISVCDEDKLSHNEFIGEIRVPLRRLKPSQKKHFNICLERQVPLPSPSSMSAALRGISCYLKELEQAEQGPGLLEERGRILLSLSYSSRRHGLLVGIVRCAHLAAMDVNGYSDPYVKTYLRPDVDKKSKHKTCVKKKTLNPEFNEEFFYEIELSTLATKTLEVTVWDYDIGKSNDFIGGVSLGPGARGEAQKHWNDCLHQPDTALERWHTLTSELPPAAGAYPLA
UniProt Q9Z1N9: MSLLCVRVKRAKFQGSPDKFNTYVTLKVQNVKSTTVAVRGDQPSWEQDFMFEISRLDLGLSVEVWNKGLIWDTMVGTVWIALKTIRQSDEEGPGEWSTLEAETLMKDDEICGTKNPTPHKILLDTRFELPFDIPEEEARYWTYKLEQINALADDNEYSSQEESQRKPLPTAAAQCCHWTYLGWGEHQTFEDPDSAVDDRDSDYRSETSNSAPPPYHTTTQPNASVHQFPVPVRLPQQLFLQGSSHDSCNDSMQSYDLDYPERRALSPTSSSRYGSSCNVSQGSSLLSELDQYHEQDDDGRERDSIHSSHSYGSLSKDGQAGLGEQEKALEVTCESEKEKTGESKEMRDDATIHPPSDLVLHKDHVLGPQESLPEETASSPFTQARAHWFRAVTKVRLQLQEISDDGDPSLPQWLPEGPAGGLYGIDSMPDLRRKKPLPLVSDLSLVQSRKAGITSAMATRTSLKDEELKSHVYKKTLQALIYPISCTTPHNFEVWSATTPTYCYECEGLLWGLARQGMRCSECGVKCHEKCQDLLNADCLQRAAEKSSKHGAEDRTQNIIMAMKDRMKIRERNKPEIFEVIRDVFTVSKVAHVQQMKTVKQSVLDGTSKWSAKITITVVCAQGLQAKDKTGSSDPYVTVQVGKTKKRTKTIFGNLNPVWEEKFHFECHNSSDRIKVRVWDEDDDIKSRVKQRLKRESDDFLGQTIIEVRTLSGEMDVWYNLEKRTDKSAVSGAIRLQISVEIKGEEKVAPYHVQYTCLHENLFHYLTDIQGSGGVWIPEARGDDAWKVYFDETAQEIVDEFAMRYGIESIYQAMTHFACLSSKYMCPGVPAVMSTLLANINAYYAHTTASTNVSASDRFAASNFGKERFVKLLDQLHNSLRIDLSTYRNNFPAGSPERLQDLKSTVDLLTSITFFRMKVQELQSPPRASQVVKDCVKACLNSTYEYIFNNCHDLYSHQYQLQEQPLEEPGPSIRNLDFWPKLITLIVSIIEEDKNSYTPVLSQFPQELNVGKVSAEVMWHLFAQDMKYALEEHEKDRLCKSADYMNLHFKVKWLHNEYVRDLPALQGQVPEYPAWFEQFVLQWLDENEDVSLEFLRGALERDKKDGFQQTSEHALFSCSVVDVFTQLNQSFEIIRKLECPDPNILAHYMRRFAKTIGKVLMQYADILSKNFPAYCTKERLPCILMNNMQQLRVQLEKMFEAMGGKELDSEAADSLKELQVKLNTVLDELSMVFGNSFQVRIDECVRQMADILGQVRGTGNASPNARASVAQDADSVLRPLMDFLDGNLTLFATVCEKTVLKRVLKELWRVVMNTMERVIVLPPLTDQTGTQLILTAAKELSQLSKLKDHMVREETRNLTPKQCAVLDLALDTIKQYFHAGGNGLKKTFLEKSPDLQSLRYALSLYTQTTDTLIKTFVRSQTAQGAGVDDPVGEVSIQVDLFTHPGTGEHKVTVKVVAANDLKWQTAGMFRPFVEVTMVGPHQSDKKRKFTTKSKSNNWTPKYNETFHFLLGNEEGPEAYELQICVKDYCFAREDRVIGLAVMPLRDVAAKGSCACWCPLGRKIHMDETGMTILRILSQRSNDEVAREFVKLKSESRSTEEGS

Target: Double C2 domain alpha (DOC2A) (UniProt Q7TNF0)
Assay: co-IP; co-immunoprecipitation (CO-IP), Figure 7K,L; sample, bait and conditions not described

unc-13 homolog B (UNC13B) (from UniProt Q9Z1N9 1-1602)
binding: binds
